Results reported in publication PMC10410440, “Preclinical PK investigation of a novel IDO1/TDO dual inhibitor—SHR9146 in mouse plasma and tissues by LC-MS/MS” (Frontiers in Oncology, 2023).
Values joined by “and” are separate entries in the source; they are usually repeats but may differ in a detail not shown here. Equal values may be shown once. Further values from the same series stand in other lists.

Test: Plasma pharmacokinetics of SHR9146 in mice (LC-MS/MS, non-compartmental analysis)
Assay type: in vivo, ICR mice
Procedure: ICR mice with body weight 16–26 g were supplied by Shanghai Lingchang Biotechnology Co., Ltd. (animal breeding license number SCXK (Shanghai) 2013-0018) and housed at Shanghai Institute of Materia Medica, Chinese Academy of Sciences [animal use license number SYXK (Shanghai) 2015-0027]. The mice used in this study were fasted overnight for 12 h but had free access to water. Food was supplied 4 h post-dose. All experiments in this study were conducted in accordance with the Guidelines for the Care and Use of Laboratory Animals of Shanghai Institute of Materia Medica, Chinese Academy of Sciences.
A total of 30 mice were randomly assigned into five groups with equal numbers, males and females. One group was intravenously administrated with 5 mg/kg SHR9146 dissolved in […] plus 95% saline (adjusted pH to 4.0) under sterile conditions. The remaining four groups were administered respectively with a single dose of 20 , 40, or 80 mg/kg or multiple doses of 20 mg/kg twice daily for 7 days, by oral gavage of SHR9146 dissolved in 0.5% CMC-Na. Blood samples were obtained from the fossa orbitalis vein at 15 and 30 min and 1.0, 2.0, 4.0, 6.0, 8.0, 10.0, and 24.0 h after oral gavage administration. An additional 5-min time point was included for iv injection, as well as the pre-drug administration time points on the fifth, sixth, and seventh days in the multiple-dose group. The blood samples were collected in EDTA K2 anticoagulant blood collection tubes and centrifuged at 1,000 rpm for 5 min at 4°C. The supernatant plasma samples were thus produced.
Briefly as follows, an aliquot of 25-μL plasma or tissue homogenate was spiked with 100 μL of internal standard solution (1 μg/mL for plasma, 0.2 μg/mL for tissue homogenate) and 300 μL of methanol added and vortex mixed for 60 s. The mixture was then centrifuged at 14,000 rpm at 4°C for 5.0 min, and the supernatant was diluted with methanol–water (4:1, v/v) in a ratio of 1:9 for the plasma or 1:1 for the tissue homogenate, and 5 μL of the resulting solution was injected for the LC-MS/MS analysis.
The pharmacokinetic parameters of SHR9146 in mouse plasma were estimated by Phoenix 1.4 software using a non-compartmental model.
The mean concentration–time curves of SHR9146 in mouse plasma after a single oral gavage dose of 20, 40, or 80 mg/kg, or a single intravenous dose of 5 mg/kg, or the 7th-day steady state after twice-daily multiple oral doses of 20 mg/kg are shown in Figure 5 (Table S6).

plasma drug concentration, individual mice #1-#6 (20 mg/kg i.g. bid, 7 days, 7th day, 10 h): 0.085 µg/mL | plasma drug concentration, individual mice #1-#6 (20 mg/kg i.g. single, 6 h): 0.281 µg/mL | plasma drug concentration, individual mice #1-#6 (40 mg/kg i.g. single, 8 h): 0.331 µg/mL | plasma drug concentration, individual mice #1-#6 (80 mg/kg i.g. single, 24 h): 0.151 µg/mL
SMILES: OCCn1cc(-c2ccc(N3CCC([C@H]4c5c(F)cccc5-c5cncn54)CC3)cc2)cn1 [SHR9146]
plasma drug concentration, individual mice #1-#6 (5 mg/kg i.v., 0.083 h): 6.501 µg/mL and 6.135 µg/mL and 7.070 µg/mL and 7.712 µg/mL and 5.854 µg/mL | plasma drug concentration, individual mice #1-#6 (5 mg/kg i.v., 0.25 h): 4.634 µg/mL and 5.530 µg/mL and 5.068 µg/mL and 5.867 µg/mL and 5.061 µg/mL | plasma drug concentration, individual mice #1-#6 (5 mg/kg i.v., 0.5 h): 3.814 µg/mL and 3.044 µg/mL and 3.947 µg/mL and 3.268 µg/mL and 3.049 µg/mL | plasma drug concentration, individual mice #1-#6 (5 mg/kg i.v., 1 h): 2.136 µg/mL and 3.488 µg/mL and 2.715 µg/mL and 3.587 µg/mL and 2.184 µg/mL | plasma drug concentration, individual mice #1-#6 (5 mg/kg i.v., 2 h): 0.498 µg/mL and 0.653 µg/mL and 0.503 µg/mL and 0.385 µg/mL and 0.588 µg/mL and 1.003 µg/mL | plasma drug concentration, individual mice #1-#6 (5 mg/kg i.v., 4 h): 0.061 μg/mL and 0.354 μg/mL and 0.073 μg/mL (2×) and 0.198 μg/mL | plasma drug concentration, individual mice #1-#6 (20 mg/kg i.g. bid, 7 days, 7th day, 0.25 h): 4.676 µg/mL and 7.420 µg/mL and 6.349 µg/mL and 6.700 µg/mL and 4.834 µg/mL | plasma drug concentration, individual mice #1-#6 (20 mg/kg i.g. bid, 7 days, 7th day, 0.5 h): 4.970 µg/mL and 8.803 µg/mL and 11.634 µg/mL and 11.051 µg/mL and 5.196 µg/mL and 6.469 µg/mL | plasma drug concentration, individual mice #1-#6 (20 mg/kg i.g. bid, 7 days, 7th day, 1 h): 9.924 µg/mL and 7.461 µg/mL and 7.708 µg/mL and 10.071 µg/mL and 11.514 µg/mL | plasma drug concentration, individual mice #1-#6 (20 mg/kg i.g. bid, 7 days, 7th day, 2 h): 3.968 µg/mL and 4.754 µg/mL and 8.083 µg/mL and 3.763 µg/mL and 5.945 µg/mL and 10.521 µg/mL | plasma drug concentration, individual mice #1-#6 (20 mg/kg i.g. bid, 7 days, 7th day, 3 h): 2.420 µg/mL and 2.321 µg/mL and 7.628 µg/mL and 3.494 µg/mL and 1.964 µg/mL and 1.194 µg/mL | plasma drug concentration, individual mice #1-#6 (20 mg/kg i.g. bid, 7 days, 7th day, 4 h): 2.144 µg/mL and 1.661 µg/mL and 0.809 µg/mL and 1.078 µg/mL and 1.098 µg/mL and 2.751 µg/mL | plasma drug concentration, individual mice #1-#6 (20 mg/kg i.g. bid, 7 days, 7th day, 6 h): 0.363 µg/mL and 0.277 µg/mL and 0.481 µg/mL and 0.091 µg/mL and 0.141 µg/mL and 1.368 µg/mL | plasma drug concentration, individual mice #1-#6 (20 mg/kg i.g. bid, 7 days, 7th day, 8 h): 0.077 µg/mL and 0.148 µg/mL and 0.055 µg/mL and 0.068 µg/mL | plasma drug concentration, individual mice #1-#6 (20 mg/kg i.g. single, 0.25 h): 4.318 µg/mL and 4.264 µg/mL and 10.424 µg/mL and 7.616 µg/mL and 13.439 µg/mL and 4.955 µg/mL | plasma drug concentration, individual mice #1-#6 (20 mg/kg i.g. single, 0.5 h): 12.205 µg/mL and 7.513 µg/mL and 6.779 µg/mL and 4.648 µg/mL and 12.863 µg/mL and 4.841 µg/mL | plasma drug concentration, individual mice #1-#6 (20 mg/kg i.g. single, 1 h): 4.121 µg/mL and 1.283 µg/mL and 4.054 µg/mL and 9.104 µg/mL and 4.762 µg/mL and 4.423 µg/mL | plasma drug concentration, individual mice #1-#6 (20 mg/kg i.g. single, 2 h): 2.104 µg/mL and 0.333 µg/mL and 8.420 µg/mL and 2.159 µg/mL and 9.708 µg/mL and 1.135 µg/mL | plasma drug concentration, individual mice #1-#6 (20 mg/kg i.g. single, 3 h): 6.753 µg/mL and 2.669 µg/mL and 0.821 µg/mL and 0.263 µg/mL and 4.318 µg/mL and 2.858 µg/mL | plasma drug concentration, individual mice #1-#6 (20 mg/kg i.g. single, 4 h): 0.148 µg/mL and 0.385 µg/mL and 2.256 µg/mL and 0.255 µg/mL and 0.112 µg/mL | plasma drug concentration, individual mice #1-#6 (40 mg/kg i.g. single, 0.25 h): 0.213 µg/mL and 6.513 µg/mL and 5.997 µg/mL and 6.990 µg/mL and 5.088 µg/mL and 4.173 µg/mL | plasma drug concentration, individual mice #1-#6 (40 mg/kg i.g. single, 0.5 h): 9.747 µg/mL and 9.915 µg/mL and 0.706 µg/mL and 5.062 µg/mL and 0.282 µg/mL and 6.133 µg/mL | plasma drug concentration, individual mice #1-#6 (40 mg/kg i.g. single, 1 h): 14.150 µg/mL and 8.056 µg/mL and 18.587 µg/mL and 13.042 µg/mL and 5.372 µg/mL and 0.689 µg/mL | plasma drug concentration, individual mice #1-#6 (40 mg/kg i.g. single, 2 h): 0.719 µg/mL and 12.276 µg/mL and 9.415 µg/mL and 3.103 µg/mL and 2.389 µg/mL and 1.618 µg/mL | plasma drug concentration, individual mice #1-#6 (40 mg/kg i.g. single, 3 h): 2.305 µg/mL and 1.716 µg/mL and 1.334 µg/mL and 0.438 µg/mL and 0.715 µg/mL and 0.252 µg/mL | plasma drug concentration, individual mice #1-#6 (40 mg/kg i.g. single, 4 h): 3.921 µg/mL and 4.455 µg/mL and 5.669 µg/mL and 1.014 µg/mL and 10.453 µg/mL and 0.582 µg/mL | plasma drug concentration, individual mice #1-#6 (40 mg/kg i.g. single, 6 h): 0.545 µg/mL and 1.856 µg/mL and 0.492 µg/mL and 3.179 µg/mL | plasma drug concentration, individual mice #1-#6 (80 mg/kg i.g. single, 0.25 h): 4.807 µg/mL and 6.532 µg/mL and 2.882 µg/mL and 9.761 µg/mL and 7.622 µg/mL and 5.181 µg/mL | plasma drug concentration, individual mice #1-#6 (80 mg/kg i.g. single, 0.5 h): 11.869 µg/mL and 11.106 µg/mL and 13.915 µg/mL and 11.362 µg/mL and 10.320 µg/mL | plasma drug concentration, individual mice #1-#6 (80 mg/kg i.g. single, 1 h): 12.846 µg/mL and 19.500 µg/mL and 0.446 µg/mL and 20.289 µg/mL and 23.386 µg/mL and 0.889 µg/mL | plasma drug concentration, individual mice #1-#6 (80 mg/kg i.g. single, 2 h): 2.807 µg/mL and 6.223 µg/mL and 0.769 µg/mL and 22.499 µg/mL and 16.613 µg/mL and 4.650 µg/mL | plasma drug concentration, individual mice #1-#6 (80 mg/kg i.g. single, 3 h): 0.671 µg/mL and 9.313 µg/mL and 2.798 µg/mL and 5.034 µg/mL and 8.033 µg/mL and 2.193 µg/mL | plasma drug concentration, individual mice #1-#6 (80 mg/kg i.g. single, 4 h): 4.657 µg/mL and 22.517 µg/mL and 0.715 µg/mL and 5.330 µg/mL and 19.633 µg/mL and 0.839 µg/mL | plasma drug concentration, individual mice #1-#6 (80 mg/kg i.g. single, 6 h): 0.088 µg/mL and 6.184 µg/mL and 7.238 µg/mL and 0.078 µg/mL | plasma drug concentration, individual mice #1-#6 (80 mg/kg i.g. single, 8 h): 0.090 µg/mL and 4.871 µg/mL and 2.260 µg/mL | plasma drug concentration, individual mice #1-#6 (80 mg/kg i.g. single, 10 h): 0.068 µg/mL and 7.993 µg/mL and 0.486 µg/mL and 0.080 µg/mL and 1.174 µg/mL and 0.415 µg/mL
